Reference: patent publication EP0606463B1 (The Administrators of The Tulane Educational Fund, priority 1992, dated 1994)

Test: general procedure: Boc solid-phase peptide synthesis; benzhydrylamine-polystyrene resin; diisopropylcarbodiimide
Settings: whole synthesis, scale 0.5 mmole

D-Nal-Cys-Tyr-D-Trp-Lys-Val-Cys-Nal-NH2
isolated mass: 151 mg
